Assay [1] deals with 14λ:YFPc (Arabidopsis). In words: BiFC in stable transgenic Arabidopsis.
For assay [2], the target named is 14λ:YFPc (Arabidopsis). As to the kind of experiment: BiFC, transient co-expression in N. benthamiana leaves.

These are yes or no findings as the source states them, for the method shown. Some entries that bind do so weakly or less than the wild type.

As to PHCVPRDLSWLDLEANMCLP (peptide, not shown: large carriers) [R18:YFPn], the binding entry in the assay with 14λ:YFPc (Arabidopsis) [1] and with 14λ:YFPc (Arabidopsis) [2] was “binds” in each case.
